# Values from PubChem BioAssay AID1508597 (Cure First, 2020).
# Aim: 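Genes whose silencing sensitises or protects ovarian cancer cells against rucaparib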 (primary screen)
# Cell system: human ovarian carcinoma lines grown from tumours: OCI-P5x (papillary serous) and OCI-C5x (clear cell)
# Reagent: siRNA pool against human genes, 1.25 pmol siRNA per well
# Time to read-out: 72 h or 96 h, depending on the cell culture
# Challenge: rucaparib 20 µM (about IC30) or vehicle, present until read-out
# Measured: 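Luminescent ATP-based viability assay read 72 or 96 h after transfection, depending on culture, given as normalised percent viability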
# Direction: viability, normalised: higher = more viable cells remaining
# Active means: 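a well counts as a hit if its normalised viability is under 80 percent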
# Meaning of the calls: active = viability under 80%; inactive = viability 80% or more
# The deposit covers about 2,100 reagents; shown is a part drawn at random. 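Calls flag viability under 80% in either arm, not effects specific to rucaparib; the reference for percent is not stated.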 Entries without a mark were called inactive. Reagents against one gene are numbered here. A reagent listed more than once was tested more than once; the source does not tell the runs apart. Reagent sequences are not shown. Not stated in the record: the 100% reference.
gene,pool no.,rucaparib or vehicle,cell line,technical replicate,"viability, normalised (%)"
HDAC1,1,Rucaparib,OCI-C5x (clear cell),1,54 (active)
HDAC1,1,Rucaparib,OCI-C5x (clear cell),1,45.3 (active)
HDAC1,1,Rucaparib,OCI-C5x (clear cell),2,68.2 (active)
HDAC1,1,Rucaparib,OCI-C5x (clear cell),2,41.4 (active)
HDAC1,1,Rucaparib,OCI-C5x (clear cell),3,71.1 (active)
HDAC1,1,Rucaparib,OCI-C5x (clear cell),3,38.9 (active)
HDAC1,1,Rucaparib,OCI-P5x (serous),1,90.3
HDAC1,1,Rucaparib,OCI-P5x (serous),1,58.7 (active)
HDAC1,1,Rucaparib,OCI-P5x (serous),2,61.3 (active)
HDAC1,1,Rucaparib,OCI-P5x (serous),2,114
HDAC1,1,Rucaparib,OCI-P5x (serous),3,81.9
HDAC1,1,Rucaparib,OCI-P5x (serous),3,101
HDAC1,1,Vehicle,OCI-C5x (clear cell),1,53.4 (active)
HDAC1,1,Vehicle,OCI-C5x (clear cell),1,36.4 (active)
HDAC1,1,Vehicle,OCI-C5x (clear cell),2,37.9 (active)
HDAC1,1,Vehicle,OCI-C5x (clear cell),2,44 (active)
HDAC1,1,Vehicle,OCI-C5x (clear cell),3,54.8 (active)
HDAC1,1,Vehicle,OCI-C5x (clear cell),3,42.1 (active)
HDAC1,1,Vehicle,OCI-P5x (serous),1,59.3 (active)
HDAC1,1,Vehicle,OCI-P5x (serous),1,82.4
HDAC1,1,Vehicle,OCI-P5x (serous),2,80.5
HDAC1,1,Vehicle,OCI-P5x (serous),2,60.2 (active)
HDAC1,1,Vehicle,OCI-P5x (serous),3,89
HDAC1,1,Vehicle,OCI-P5x (serous),3,80.2
DDR1,1,Rucaparib,OCI-C5x (clear cell),1,43.5 (active)
DDR1,1,Rucaparib,OCI-C5x (clear cell),2,46.1 (active)
DDR1,1,Rucaparib,OCI-C5x (clear cell),3,41 (active)
DDR1,1,Rucaparib,OCI-P5x (serous),1,93
DDR1,1,Rucaparib,OCI-P5x (serous),2,80.4
DDR1,1,Rucaparib,OCI-P5x (serous),3,80.8
DDR1,1,Vehicle,OCI-C5x (clear cell),1,39.4 (active)
DDR1,1,Vehicle,OCI-C5x (clear cell),2,50 (active)
DDR1,1,Vehicle,OCI-C5x (clear cell),3,42.4 (active)
DDR1,1,Vehicle,OCI-P5x (serous),1,81.5
DDR1,1,Vehicle,OCI-P5x (serous),2,80.7
DDR1,1,Vehicle,OCI-P5x (serous),3,76.2 (active)

7 entries from above, arranged by “viability, normalised (%)”, descending.
gene,pool no.,rucaparib or vehicle,cell line,technical replicate,"viability, normalised (%)"
HDAC1,1,Rucaparib,OCI-P5x (serous),2,114
HDAC1,1,Rucaparib,OCI-P5x (serous),3,101
HDAC1,1,Rucaparib,OCI-P5x (serous),3,81.9
HDAC1,1,Vehicle,OCI-C5x (clear cell),1,53.4 (active)
HDAC1,1,Vehicle,OCI-C5x (clear cell),2,44 (active)
HDAC1,1,Vehicle,OCI-C5x (clear cell),2,37.9 (active)
HDAC1,1,Vehicle,OCI-C5x (clear cell),1,36.4 (active)

The listing continues.
gene,pool no.,rucaparib or vehicle,cell line,technical replicate,"viability, normalised (%)"
MAP2K1,1,Rucaparib,OCI-C5x (clear cell),1,56 (active)
MAP2K1,1,Rucaparib,OCI-C5x (clear cell),2,56.6 (active)
MAP2K1,1,Rucaparib,OCI-C5x (clear cell),3,60.1 (active)
MAP2K1,1,Rucaparib,OCI-P5x (serous),1,70.4 (active)
MAP2K1,1,Rucaparib,OCI-P5x (serous),2,103
MAP2K1,1,Rucaparib,OCI-P5x (serous),3,75.7 (active)
MAP2K1,1,Vehicle,OCI-C5x (clear cell),1,47.9 (active)
MAP2K1,1,Vehicle,OCI-C5x (clear cell),2,60.7 (active)
MAP2K1,1,Vehicle,OCI-C5x (clear cell),3,37.5 (active)
MAP2K1,1,Vehicle,OCI-P5x (serous),1,73.9 (active)
MAP2K1,1,Vehicle,OCI-P5x (serous),2,83.7
MAP2K1,1,Vehicle,OCI-P5x (serous),3,65.6 (active)
PRKAR2A,1,Rucaparib,OCI-C5x (clear cell),1,53.5 (active)
PRKAR2A,1,Rucaparib,OCI-C5x (clear cell),2,78.1 (active)
PRKAR2A,1,Rucaparib,OCI-C5x (clear cell),3,57.8 (active)
PRKAR2A,1,Rucaparib,OCI-P5x (serous),1,97.7
PRKAR2A,1,Rucaparib,OCI-P5x (serous),2,110
PRKAR2A,1,Rucaparib,OCI-P5x (serous),3,101
PRKAR2A,1,Vehicle,OCI-C5x (clear cell),1,80.8
PRKAR2A,1,Vehicle,OCI-C5x (clear cell),2,57.2 (active)
PRKAR2A,1,Vehicle,OCI-C5x (clear cell),3,67.3 (active)
PRKAR2A,1,Vehicle,OCI-P5x (serous),1,101
PRKAR2A,1,Vehicle,OCI-P5x (serous),2,96.6
PRKAR2A,1,Vehicle,OCI-P5x (serous),3,90.1
STK32C,1,Rucaparib,OCI-C5x (clear cell),1,81.5
STK32C,1,Rucaparib,OCI-C5x (clear cell),2,38.2 (active)
STK32C,1,Rucaparib,OCI-C5x (clear cell),3,53 (active)
STK32C,1,Rucaparib,OCI-P5x (serous),1,52.5 (active)
STK32C,1,Rucaparib,OCI-P5x (serous),2,91.9
STK32C,1,Rucaparib,OCI-P5x (serous),3,74 (active)
STK32C,1,Vehicle,OCI-C5x (clear cell),1,44.8 (active)
STK32C,1,Vehicle,OCI-C5x (clear cell),2,49.8 (active)
STK32C,1,Vehicle,OCI-C5x (clear cell),3,58.6 (active)
STK32C,1,Vehicle,OCI-P5x (serous),1,72.9 (active)
STK32C,1,Vehicle,OCI-P5x (serous),2,52.8 (active)
STK32C,1,Vehicle,OCI-P5x (serous),3,51.7 (active)
ABRAXAS1,1,Rucaparib,OCI-C5x (clear cell),1,64 (active)
ABRAXAS1,1,Rucaparib,OCI-C5x (clear cell),2,50.7 (active)
ABRAXAS1,1,Rucaparib,OCI-C5x (clear cell),3,55.9 (active)
ABRAXAS1,1,Rucaparib,OCI-P5x (serous),1,46.8 (active)
ABRAXAS1,1,Rucaparib,OCI-P5x (serous),2,68.4 (active)
ABRAXAS1,1,Rucaparib,OCI-P5x (serous),3,61.2 (active)
ABRAXAS1,1,Vehicle,OCI-C5x (clear cell),1,67.5 (active)
ABRAXAS1,1,Vehicle,OCI-C5x (clear cell),2,76.1 (active)
ABRAXAS1,1,Vehicle,OCI-C5x (clear cell),3,64.8 (active)
ABRAXAS1,1,Vehicle,OCI-P5x (serous),1,67 (active)
ABRAXAS1,1,Vehicle,OCI-P5x (serous),2,79.5 (active)
ABRAXAS1,1,Vehicle,OCI-P5x (serous),3,121
ABRAXAS1,2,Rucaparib,OCI-C5x (clear cell),1,42 (active)
ABRAXAS1,2,Rucaparib,OCI-C5x (clear cell),2,48.3 (active)
ABRAXAS1,2,Rucaparib,OCI-C5x (clear cell),3,44.2 (active)
ABRAXAS1,2,Rucaparib,OCI-P5x (serous),1,75.9 (active)
ABRAXAS1,2,Rucaparib,OCI-P5x (serous),2,89.4
ABRAXAS1,2,Rucaparib,OCI-P5x (serous),3,79.5 (active)
ABRAXAS1,2,Vehicle,OCI-C5x (clear cell),1,48.6 (active)
ABRAXAS1,2,Vehicle,OCI-C5x (clear cell),2,51.1 (active)
ABRAXAS1,2,Vehicle,OCI-C5x (clear cell),3,43.1 (active)
ABRAXAS1,2,Vehicle,OCI-P5x (serous),1,84.5
ABRAXAS1,2,Vehicle,OCI-P5x (serous),2,91.3
ABRAXAS1,2,Vehicle,OCI-P5x (serous),3,70.9 (active)
